The supplement of paper PMC6411743
± gives the standard deviation of the averaged measurements. This is a selection; strong and weak results do not stand in their true shares. Most values lie at the level of the controls, where differences are scatter.

By UniProt entry, the sequences of proteins in these tests, tags left out. Where a name states a change or a piece, a line headed by the entry shows the natural chain unless it says otherwise.
UniProt Q9H5Z1: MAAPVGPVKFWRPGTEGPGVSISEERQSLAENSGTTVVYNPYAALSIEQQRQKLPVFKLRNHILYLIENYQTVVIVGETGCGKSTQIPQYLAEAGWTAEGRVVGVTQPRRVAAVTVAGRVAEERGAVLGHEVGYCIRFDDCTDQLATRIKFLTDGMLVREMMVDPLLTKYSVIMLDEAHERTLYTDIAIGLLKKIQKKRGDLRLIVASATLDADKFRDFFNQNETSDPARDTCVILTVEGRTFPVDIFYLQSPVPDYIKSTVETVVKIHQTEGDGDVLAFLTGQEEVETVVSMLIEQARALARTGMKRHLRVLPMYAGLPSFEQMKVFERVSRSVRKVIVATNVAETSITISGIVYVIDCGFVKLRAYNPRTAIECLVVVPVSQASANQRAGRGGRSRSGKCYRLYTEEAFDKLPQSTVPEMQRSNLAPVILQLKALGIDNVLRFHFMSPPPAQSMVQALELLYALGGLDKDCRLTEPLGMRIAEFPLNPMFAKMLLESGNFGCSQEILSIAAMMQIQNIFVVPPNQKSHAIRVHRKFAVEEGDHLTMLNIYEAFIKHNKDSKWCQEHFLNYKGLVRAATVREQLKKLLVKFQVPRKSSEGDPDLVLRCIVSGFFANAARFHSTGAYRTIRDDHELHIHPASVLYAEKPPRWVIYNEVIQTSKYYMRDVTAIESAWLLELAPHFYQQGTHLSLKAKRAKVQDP
UniProt Q5JTJ3: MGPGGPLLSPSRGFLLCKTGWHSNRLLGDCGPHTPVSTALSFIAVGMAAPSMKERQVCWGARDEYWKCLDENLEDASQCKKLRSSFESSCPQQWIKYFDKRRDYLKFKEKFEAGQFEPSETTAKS
UniProt Q15172: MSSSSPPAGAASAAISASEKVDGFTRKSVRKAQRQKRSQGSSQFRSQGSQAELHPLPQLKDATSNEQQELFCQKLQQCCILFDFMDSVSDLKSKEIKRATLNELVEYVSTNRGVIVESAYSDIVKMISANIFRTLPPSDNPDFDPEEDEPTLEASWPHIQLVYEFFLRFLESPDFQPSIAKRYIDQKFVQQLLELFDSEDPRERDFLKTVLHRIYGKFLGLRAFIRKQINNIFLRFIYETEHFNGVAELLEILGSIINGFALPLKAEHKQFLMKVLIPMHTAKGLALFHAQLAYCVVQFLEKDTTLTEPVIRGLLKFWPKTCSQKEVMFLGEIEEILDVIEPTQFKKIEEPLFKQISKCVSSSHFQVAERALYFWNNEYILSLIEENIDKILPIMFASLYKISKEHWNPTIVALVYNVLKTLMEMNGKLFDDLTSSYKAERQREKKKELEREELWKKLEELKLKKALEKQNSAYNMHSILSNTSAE
UniProt Q5QJ74: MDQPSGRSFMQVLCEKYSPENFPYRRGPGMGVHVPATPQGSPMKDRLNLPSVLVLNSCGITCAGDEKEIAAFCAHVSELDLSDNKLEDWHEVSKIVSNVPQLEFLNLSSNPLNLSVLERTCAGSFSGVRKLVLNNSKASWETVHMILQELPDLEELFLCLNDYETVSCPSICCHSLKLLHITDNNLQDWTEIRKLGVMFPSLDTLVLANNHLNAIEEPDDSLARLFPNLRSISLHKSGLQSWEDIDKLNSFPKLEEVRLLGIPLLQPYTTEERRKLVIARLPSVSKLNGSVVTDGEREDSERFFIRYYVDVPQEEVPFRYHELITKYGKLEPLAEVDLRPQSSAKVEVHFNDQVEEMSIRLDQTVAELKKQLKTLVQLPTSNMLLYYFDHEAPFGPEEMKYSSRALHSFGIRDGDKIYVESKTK
UniProt Q15428: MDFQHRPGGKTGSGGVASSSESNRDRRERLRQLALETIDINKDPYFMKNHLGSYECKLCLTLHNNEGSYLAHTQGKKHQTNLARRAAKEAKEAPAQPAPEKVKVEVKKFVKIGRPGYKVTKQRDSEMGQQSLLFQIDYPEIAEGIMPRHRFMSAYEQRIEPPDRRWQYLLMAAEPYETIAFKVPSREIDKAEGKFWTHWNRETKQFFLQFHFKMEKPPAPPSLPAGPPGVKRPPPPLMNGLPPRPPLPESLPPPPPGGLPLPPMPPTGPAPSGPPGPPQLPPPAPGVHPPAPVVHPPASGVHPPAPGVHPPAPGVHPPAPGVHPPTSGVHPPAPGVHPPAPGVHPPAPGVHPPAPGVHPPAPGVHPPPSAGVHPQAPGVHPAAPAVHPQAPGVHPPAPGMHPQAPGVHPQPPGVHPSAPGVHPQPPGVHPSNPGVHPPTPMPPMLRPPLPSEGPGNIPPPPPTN
UniProt Q5JTH9: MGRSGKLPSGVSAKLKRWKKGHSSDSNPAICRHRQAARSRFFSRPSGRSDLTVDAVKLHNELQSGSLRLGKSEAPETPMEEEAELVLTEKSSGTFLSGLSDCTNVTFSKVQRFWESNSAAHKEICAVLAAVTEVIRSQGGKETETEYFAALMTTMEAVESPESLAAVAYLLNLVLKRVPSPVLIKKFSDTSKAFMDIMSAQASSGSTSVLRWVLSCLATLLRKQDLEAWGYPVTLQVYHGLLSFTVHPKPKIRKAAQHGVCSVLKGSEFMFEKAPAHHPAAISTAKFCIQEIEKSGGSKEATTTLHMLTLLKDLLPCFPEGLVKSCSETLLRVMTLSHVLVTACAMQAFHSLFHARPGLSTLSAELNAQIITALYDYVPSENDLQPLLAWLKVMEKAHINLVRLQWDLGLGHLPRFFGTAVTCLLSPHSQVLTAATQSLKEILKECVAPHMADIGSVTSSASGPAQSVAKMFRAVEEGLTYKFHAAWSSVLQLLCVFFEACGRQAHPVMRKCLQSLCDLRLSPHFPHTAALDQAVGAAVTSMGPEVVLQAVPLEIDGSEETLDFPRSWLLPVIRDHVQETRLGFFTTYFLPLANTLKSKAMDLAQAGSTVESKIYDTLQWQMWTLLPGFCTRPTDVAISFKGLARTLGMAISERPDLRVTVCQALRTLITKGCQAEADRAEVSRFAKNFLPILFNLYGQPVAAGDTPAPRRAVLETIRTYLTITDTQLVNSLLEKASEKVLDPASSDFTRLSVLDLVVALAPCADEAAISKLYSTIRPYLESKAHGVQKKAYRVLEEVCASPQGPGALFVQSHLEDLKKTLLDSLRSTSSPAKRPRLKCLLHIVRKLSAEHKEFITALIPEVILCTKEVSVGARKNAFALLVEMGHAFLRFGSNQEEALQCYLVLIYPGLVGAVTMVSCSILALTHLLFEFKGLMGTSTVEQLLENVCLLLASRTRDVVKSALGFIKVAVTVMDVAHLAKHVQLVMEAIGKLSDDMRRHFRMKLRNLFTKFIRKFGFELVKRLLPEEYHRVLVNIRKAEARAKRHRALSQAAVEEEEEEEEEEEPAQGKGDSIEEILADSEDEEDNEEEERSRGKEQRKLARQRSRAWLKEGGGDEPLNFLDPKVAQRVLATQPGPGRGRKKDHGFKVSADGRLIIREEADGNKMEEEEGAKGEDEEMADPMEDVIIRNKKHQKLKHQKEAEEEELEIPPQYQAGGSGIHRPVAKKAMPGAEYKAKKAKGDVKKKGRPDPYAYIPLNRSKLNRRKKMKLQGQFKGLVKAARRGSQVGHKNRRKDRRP
UniProt Q9H3S1: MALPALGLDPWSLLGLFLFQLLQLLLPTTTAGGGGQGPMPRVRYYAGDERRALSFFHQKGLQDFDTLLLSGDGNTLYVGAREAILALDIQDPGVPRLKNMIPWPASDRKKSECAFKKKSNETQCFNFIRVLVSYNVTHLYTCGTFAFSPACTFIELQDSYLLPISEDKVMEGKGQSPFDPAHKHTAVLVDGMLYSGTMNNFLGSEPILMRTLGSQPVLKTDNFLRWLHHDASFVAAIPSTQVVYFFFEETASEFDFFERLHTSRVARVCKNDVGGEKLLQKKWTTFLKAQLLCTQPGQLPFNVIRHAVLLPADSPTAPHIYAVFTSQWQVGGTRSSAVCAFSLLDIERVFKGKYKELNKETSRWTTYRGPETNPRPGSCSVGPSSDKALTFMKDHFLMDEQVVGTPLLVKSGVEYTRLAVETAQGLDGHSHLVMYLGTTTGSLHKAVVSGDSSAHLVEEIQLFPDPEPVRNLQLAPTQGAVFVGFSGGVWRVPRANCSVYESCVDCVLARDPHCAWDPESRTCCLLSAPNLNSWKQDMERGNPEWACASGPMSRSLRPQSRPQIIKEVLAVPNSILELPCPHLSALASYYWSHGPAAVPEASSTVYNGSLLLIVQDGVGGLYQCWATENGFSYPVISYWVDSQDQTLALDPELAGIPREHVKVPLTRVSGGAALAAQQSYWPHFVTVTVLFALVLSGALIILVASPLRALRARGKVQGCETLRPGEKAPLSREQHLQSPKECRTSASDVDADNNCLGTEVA
UniProt Q5SGD2: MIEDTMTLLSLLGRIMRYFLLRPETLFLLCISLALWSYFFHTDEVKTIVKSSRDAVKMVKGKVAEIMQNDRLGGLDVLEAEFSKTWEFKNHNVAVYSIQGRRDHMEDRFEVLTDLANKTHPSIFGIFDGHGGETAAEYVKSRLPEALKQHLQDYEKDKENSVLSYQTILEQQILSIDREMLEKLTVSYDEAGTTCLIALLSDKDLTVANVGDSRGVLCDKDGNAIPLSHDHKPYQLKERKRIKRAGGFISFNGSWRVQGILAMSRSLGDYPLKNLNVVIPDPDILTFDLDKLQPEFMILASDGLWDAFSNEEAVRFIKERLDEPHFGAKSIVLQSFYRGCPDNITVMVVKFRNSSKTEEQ
UniProt Q15120, whole entry, looked up: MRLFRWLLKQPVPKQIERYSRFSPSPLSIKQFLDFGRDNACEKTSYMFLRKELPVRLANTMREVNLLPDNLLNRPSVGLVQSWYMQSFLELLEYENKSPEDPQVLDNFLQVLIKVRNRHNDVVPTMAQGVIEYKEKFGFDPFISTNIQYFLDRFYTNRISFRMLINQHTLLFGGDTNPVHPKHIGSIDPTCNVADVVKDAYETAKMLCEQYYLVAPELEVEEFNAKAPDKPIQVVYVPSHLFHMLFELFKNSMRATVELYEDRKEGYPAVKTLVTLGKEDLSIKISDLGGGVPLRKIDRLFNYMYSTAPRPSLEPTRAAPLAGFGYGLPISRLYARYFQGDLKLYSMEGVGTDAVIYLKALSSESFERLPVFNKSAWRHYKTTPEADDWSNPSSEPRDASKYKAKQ
UniProt Q15907: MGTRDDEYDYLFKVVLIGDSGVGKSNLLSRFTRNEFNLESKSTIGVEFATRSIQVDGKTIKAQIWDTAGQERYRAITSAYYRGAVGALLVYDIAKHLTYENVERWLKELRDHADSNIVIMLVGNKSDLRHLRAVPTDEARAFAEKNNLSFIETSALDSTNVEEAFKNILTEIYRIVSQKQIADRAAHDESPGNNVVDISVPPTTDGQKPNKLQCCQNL
UniProt Q59H18: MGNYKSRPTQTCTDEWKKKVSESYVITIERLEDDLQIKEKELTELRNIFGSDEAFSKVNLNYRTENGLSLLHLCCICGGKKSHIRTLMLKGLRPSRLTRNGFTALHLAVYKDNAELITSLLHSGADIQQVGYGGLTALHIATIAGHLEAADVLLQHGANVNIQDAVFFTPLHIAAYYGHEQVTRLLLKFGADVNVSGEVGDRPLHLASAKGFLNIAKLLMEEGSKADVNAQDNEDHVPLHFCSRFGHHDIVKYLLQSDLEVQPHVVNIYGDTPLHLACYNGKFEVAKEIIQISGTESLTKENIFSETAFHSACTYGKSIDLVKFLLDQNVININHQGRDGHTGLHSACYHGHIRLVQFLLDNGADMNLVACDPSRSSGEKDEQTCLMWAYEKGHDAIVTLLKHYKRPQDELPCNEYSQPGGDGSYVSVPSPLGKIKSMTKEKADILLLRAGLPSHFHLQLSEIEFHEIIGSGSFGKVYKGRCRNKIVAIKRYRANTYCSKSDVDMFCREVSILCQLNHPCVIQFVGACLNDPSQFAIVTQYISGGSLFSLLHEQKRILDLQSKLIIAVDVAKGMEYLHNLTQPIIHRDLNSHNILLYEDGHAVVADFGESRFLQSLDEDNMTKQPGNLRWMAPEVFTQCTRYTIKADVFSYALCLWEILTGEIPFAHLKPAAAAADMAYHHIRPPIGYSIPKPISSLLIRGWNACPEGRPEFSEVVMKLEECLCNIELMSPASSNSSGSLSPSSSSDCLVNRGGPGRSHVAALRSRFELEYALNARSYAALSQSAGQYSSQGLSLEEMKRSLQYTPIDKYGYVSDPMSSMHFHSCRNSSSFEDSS

Compound: Nc1ncnc2c1ncn2[C@@H]1O[C@H](COP(=O)(O)OP(=O)(O)NP(=O)(O)O)[C@@H](O)[C@H]1O [adenylyl imidodiphosphate]
Test: NP40-soluble protein abundance relative to vehicle (solubility fold change) (ratio); higher = more soluble protein in presence of AMP-PNP
Settings: concentration: 0.5mM
In short: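 Crude Jurkat lysate, prepared by Dounce homogenisation, was exposed to eight concentrations from 0.1 to 10 mM for 10 min at room temperature and then 3 min at 37 °C. Solubilisation used 0.8% NP40 with benzonase for 60 min at 4 °C, followed by ultracentrifugation and TMT labelling of the supernatant for LC-MS/MS. After vsn normalisation of intensities, each value is the fold change against the detergent-processed vehicle within each replicate, across three independent experiments.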

Target	NP40-soluble protein abundance
Q5THR1 and related entries (UniProt Q9H5Z1)	0.958 ± 0.045
UniProt Q5JTJ3 and related entries	1.01 ± 0.029
PPP2R5A (UniProt Q15172)	0.9911 ± 0.0062
TBCEL (UniProt Q5QJ74)	1.01 ± 0.018
SF3A2 (UniProt Q15428)	1 ± 0.066
TTF1 (UniProt Q15361)	0.971 ± 0.029
UniProt Q5JTH9 and related entries	1.01 ± 0.023
Q5TCJ5 and related entries (UniProt Q9H3S1)	0.981 ± 0.024
UniProt Q5SGD2 and related entries	1.02 ± 0.017
UniProt Q15120 and related entries	1.02 ± 0.063
RAB11B (UniProt Q15907)	0.965 ± 0.065
Q59H18-1|Q59H18-3|Q59H18-4|V9GXZ4 (UniProt V9GXZ4+Q59H18)	0.963 ± 0.034
